Measurements reported in patent US5470852A, “Tetrahydroprotoberberine quaternary ammonium compounds useful in for treating arrhythmia” (priority 1991, dated 1995).
Read-outs that look alike come from different tables or passages of the source.

What was measured:
rabbits = test: Electrically-induced ventricular fibrillation threshold (VFT) in rabbits; type: in vivo, rabbit; settings: iv 15 mg/kg
anaesthetized rats = settings: X ± SD

Row | SMILES | AUC (area under curve, VFT effect) (rabbits) | Lethal risk (anaesthetized rats; iv 1.0 mg/kg) | Lethal risk (anaesthetized rats; iv 3.0 mg/kg) | Lethal risk (anaesthetized rats; po 10 mg/kg) | Lethal risk (anaesthetized rats; po 30 mg/kg)
1 | CCN(CC)CC(=O)Nc1c(C)cccc1C [Lidocaine, reference compound] | 11.4 | 56 ± 24 | 41 ± 0 |  | 
2 | CCCNCC(O)COc1ccccc1C(=O)CCc1ccccc1 (centres unmarked) [propafenon, reference compound] |  |  |  | 59 ± 29 | 41 ± 0
